Measured data: PubChem BioAssay AID504764 (Drosophila RNAi Screening Center, 2011)
The screen tested about 22,000 reagents; this is a random part of those that have a named target and a result. Of all reagents, 403 (1.9%) got an active call. 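Unnormalised raw counts per well; ratio z-scores behind the hit calls and whether each hit raises or lowers signal are not deposited.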 Entries without a mark were called inactive. Not stated in the record: the amount of reagent.

- Purpose: 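Knock-downs that raise or lower a Notch target reporter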 (primary screen)
- System: Drosophila Kc167 cells
- Reagent: long dsRNA against Drosophila genes
- Timing: about 5 days (4 days dsRNA, then 24 h after transfection)
- Treatment: transfection of constitutively active membrane-tethered Notch lacking the extracellular domain, read 24 h later
- Measurement: 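Firefly luciferase from an E(spl)m3 reporter with active Notch, plus control-promoter and uninduced reporter wells for normalisation; unnormalised counts, duplicate wells a and b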
- Scale: induced reporter light, run 1, well a and induced reporter light, run 1, well b: higher = more light from the Notch target reporter with active Notch; control promoter light, run 1, well a and control promoter light, run 1, well b: higher = more light from the viral control promoter (cell number, transfection, viability); uninduced reporter light, run 1, well a: higher = more light from the Notch target reporter without active Notch
- Rule for the call: 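Wells with low control signal or poorly matching duplicates excluded; duplicates averaged; per source plate, z beyond ±2 for induced/control log2 ratio or beyond ±1.8 for induced/uninduced marks a hit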
- Meaning of the calls: active = modifier hit (raised or lowered Notch signal); inactive = not a hit

gene knocked down	induced reporter light, run 1, well a	induced reporter light, run 1, well b	control promoter light, run 1, well a	control promoter light, run 1, well b	uninduced reporter light, run 1, well a
Lime	1.20e5	1.47e5	2.16e5	1.71e5	12485
Bap111	2.29e5	1.91e5	2.82e5	2.76e5	17570
CG6435	1.51e5	97155	1.64e5	1.33e5	10765
Ir68b	1.71e5	1.34e5	1.88e5	1.60e5	7565
CG11327	1.68e5	97385	1.54e5	1.42e5	9835
Evi5	1.15e5	1.16e5	1.43e5	1.60e5	8295

Looked up above:
Value of CG6435 in “induced reporter light, run 1, well b”: 97155
For “induced reporter light, run 1, well b”, Evi5 has 1.16e5
CG11327, control promoter light, run 1, well b = 1.42e5

Continued:
gene knocked down	induced reporter light, run 1, well a	induced reporter light, run 1, well b	control promoter light, run 1, well a	control promoter light, run 1, well b	uninduced reporter light, run 1, well a
twi	60455	63335	47450	52845	7825
PIG-B	1.69e5	1.70e5	1.18e5	61005	12205
atos	1.06e5	90960	1.23e5	1.17e5	8765
CG12020	95640	1.07e5	1.51e5	1.73e5	8080
Syb	1.23e5	1.02e5	95230	97790	7850
enok	1.03e5	1.07e5	80350	80320	6930
CG10341	2.21e5	2.04e5	1.93e5	2.30e5	18695
CG9632	1.80e5	1.85e5	1.76e5	1.97e5	15280
Tmem43	3.19e5	3.33e5	5.36e5	2.88e5	15540
Patr-1	44910	40965	25205	22888	4215
Ubc4	1.35e5	1.39e5	97305	53945	12492
tld	1.71e5	1.87e5	1.94e5	2.44e5	18210
TpnC4	2.61e5	2.31e5	2.78e5	2.89e5	20830
Oatp33Ea	2.17e5	1.79e5	1.61e5	1.55e5	13235
